Test results reported in the supplement of paper PMC11438910.
The other results are listed elsewhere or left out. Most of these values are background signal.

Columns and labels:
Assay in all cases: fluorescence intensity of antibody binding to polysaccharide-coupled beads; higher = stronger binding
[1] = target: pneumococcal polysaccharide Pn2
Procedure: (§1)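 Recombinant rhesus-murine chimeric IgG1 antibodies were tested against antigen-coupled MagPlex beads in a 96-plex Luminex direct immunoassay (dLIA). The beads carried pneumococcal capsular polysaccharides of 93 serotypes plus C-polysaccharides. Antibody was added at 0.1–12,500 ng/mL for 1 h, then PE anti-mouse IgG, and net MFI was read on a Bio-Plex 3D. Only the rhesus variable regions are printed; constant regions are murine IgG1/kappa/lambda, and the signal peptide is MGWSCIILFLVATATGVHS.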

[2] = target: pneumococcal polysaccharide Pn20A
Procedure: as §1

[3] = target: pneumococcal polysaccharide Pn20B
Procedure: as §1

[4] = target: pneumococcal polysaccharide Pn21
Procedure: as §1

[5] = target: pneumococcal polysaccharide Pn22A
Procedure: as §1

[6] = target: pneumococcal polysaccharide Pn22F
Procedure: as §1

[7] = target: pneumococcal polysaccharide Pn23A
Procedure: as §1

[8] = target: pneumococcal polysaccharide Pn23B
Procedure: as §1

[9] = target: pneumococcal polysaccharide Pn23F
Procedure: as §1

[10] = target: pneumococcal polysaccharide Pn24A
Procedure: as §1

[11] = target: pneumococcal polysaccharide Pn24B
Procedure: as §1

[12] = target: pneumococcal polysaccharide Pn24F
Procedure: as §1

[13] = target: pneumococcal polysaccharide Pn25A
Procedure: as §1

[14] = target: pneumococcal polysaccharide Pn25F
Procedure: as §1

[15] = target: pneumococcal polysaccharide Pn27
Procedure: as §1

[16] = target: pneumococcal polysaccharide Pn28A
Procedure: as §1

[17] = target: pneumococcal polysaccharide Pn28F
Procedure: as §1

[18] = target: pneumococcal polysaccharide Pn29
Procedure: as §1

[19] = target: pneumococcal polysaccharide Pn3
Procedure: as §1

[20] = target: pneumococcal polysaccharide Pn31
Procedure: as §1

[21] = target: pneumococcal polysaccharide Pn32A
Procedure: as §1

[22] = target: pneumococcal polysaccharide Pn32F
Procedure: as §1

[23] = target: pneumococcal polysaccharide Pn33A
Procedure: as §1

[24] = target: pneumococcal polysaccharide Pn33B
Procedure: as §1

[25] = antibody concentration 2337.65 ng/mL
[26] = antibody concentration 12500 ng/mL
[27] = antibody concentration 0.1 ng/mL
[28] = antibody concentration 0.534724 ng/mL
[29] = antibody concentration 2.8593 ng/mL
[30] = antibody concentration 15.2894 ng/mL
[31] = antibody concentration 81.7561 ng/mL
[32] = antibody concentration 437.17 ng/mL

B1: 4-173.1 (protein)
chain 1: QLQLQESGPGLVKPSETLSLTCAVSGASISSNYWSWIRQAPGKGLEWIGRISGSSGSTDYNPSLKSRVTISTDTSKNQFSLKLNSVTAADTAVYYCARVSYWGHYGDYWGQGVLVTVSS
chain 2: QPVLTQPSSHSASPGAPARLTCTLSSGFSVGDFWIRWYQQKPGSPPRYLLYYHSDSDKHQGSGVPSRFSGSNDASANAGILHISGLQPEDEADYYCCTWHGNSKTQIFGAGTRLTVL
fluorescence intensity [1, 25]: 21 MFI
fluorescence intensity [1, 26]: 27 MFI
fluorescence intensity [2, 27]: 24 MFI
fluorescence intensity [2, 28]: 23.2 MFI
fluorescence intensity [2, 29]: 24.5 MFI
fluorescence intensity [2, 30]: 24 MFI
fluorescence intensity [2, 31]: 23.8 MFI
fluorescence intensity [2, 32]: 24.5 MFI
fluorescence intensity [2, 25]: 26 MFI
fluorescence intensity [2, 26]: 47.8 MFI
fluorescence intensity [3, 27]: 25.5 MFI
fluorescence intensity [3, 28]: 24 MFI
fluorescence intensity [3, 29]: 27 MFI
fluorescence intensity [3, 30]: 25.5 MFI
fluorescence intensity [3, 31]: 25.5 MFI
fluorescence intensity [3, 32]: 24.5 MFI
fluorescence intensity [3, 25]: 25 MFI
fluorescence intensity [3, 26]: 29.5 MFI
fluorescence intensity [4, 27]: 20.2 MFI
fluorescence intensity [4, 28]: 21 MFI
fluorescence intensity [4, 29]: 19.2 MFI
fluorescence intensity [4, 30]: 17.5 MFI
fluorescence intensity [4, 31]: 21 MFI
fluorescence intensity [4, 32]: 19.5 MFI
fluorescence intensity [4, 25]: 20.2 MFI
fluorescence intensity [4, 26]: 23 MFI
fluorescence intensity [5, 27]: 23.2 MFI
fluorescence intensity [5, 28]: 22 MFI
fluorescence intensity [5, 29]: 22.8 MFI
fluorescence intensity [5, 30]: 23 MFI
fluorescence intensity [5, 31]: 21.5 MFI
fluorescence intensity [5, 32]: 22 MFI
fluorescence intensity [5, 25]: 23.5 MFI
fluorescence intensity [5, 26]: 33 MFI
fluorescence intensity [6, 27]: 31.2 MFI
fluorescence intensity [6, 28]: 31.5 MFI
fluorescence intensity [6, 29]: 32.5 MFI
fluorescence intensity [6, 30]: 30 MFI
fluorescence intensity [6, 31]: 32.8 MFI
fluorescence intensity [6, 32]: 31 MFI
fluorescence intensity [6, 25]: 33 MFI
fluorescence intensity [6, 26]: 35.8 MFI
fluorescence intensity [7, 27]: 25.8 MFI
fluorescence intensity [7, 28]: 26 MFI
fluorescence intensity [7, 29]: 28 MFI
fluorescence intensity [7, 30]: 25.5 MFI
fluorescence intensity [7, 31]: 24.5 MFI
fluorescence intensity [7, 32]: 26 MFI
fluorescence intensity [7, 25]: 29.5 MFI
fluorescence intensity [7, 26]: 45.5 MFI
fluorescence intensity [8, 27]: 32 MFI
fluorescence intensity [8, 28]: 32.8 MFI
fluorescence intensity [8, 29]: 30.5 MFI
fluorescence intensity [8, 30]: 31.5 MFI
fluorescence intensity [8, 31]: 30 MFI
fluorescence intensity [8, 32]: 31 MFI
fluorescence intensity [8, 25]: 33 MFI
fluorescence intensity [8, 26]: 37 MFI
fluorescence intensity [9, 27]: 18.8 MFI
fluorescence intensity [9, 28]: 17.5 MFI
fluorescence intensity [9, 29]: 17.2 MFI
fluorescence intensity [9, 30]: 19 MFI
fluorescence intensity [9, 31]: 19 MFI
fluorescence intensity [9, 32]: 18.5 MFI
fluorescence intensity [9, 25]: 19.5 MFI
fluorescence intensity [9, 26]: 24.5 MFI
fluorescence intensity [10, 27]: 16.5 MFI
fluorescence intensity [10, 28]: 15.8 MFI
fluorescence intensity [10, 29]: 16.5 MFI
fluorescence intensity [10, 30]: 17 MFI
fluorescence intensity [10, 31]: 15.8 MFI
fluorescence intensity [10, 32]: 16.5 MFI
fluorescence intensity [10, 25]: 16 MFI
fluorescence intensity [10, 26]: 21 MFI
fluorescence intensity [11, 27]: 19 MFI
fluorescence intensity [11, 28]: 18 MFI
fluorescence intensity [11, 29]: 21 MFI
fluorescence intensity [11, 30]: 19.5 MFI
fluorescence intensity [11, 31]: 17 MFI
fluorescence intensity [11, 32]: 20 MFI
fluorescence intensity [11, 25]: 22.2 MFI
fluorescence intensity [11, 26]: 32 MFI
fluorescence intensity [12, 27]: 17.8 MFI
fluorescence intensity [12, 28]: 18.5 MFI
fluorescence intensity [12, 29]: 20.2 MFI
fluorescence intensity [12, 30]: 19 MFI
fluorescence intensity [12, 31]: 18.5 MFI
fluorescence intensity [12, 32]: 18.8 MFI
fluorescence intensity [12, 25]: 21.8 MFI
fluorescence intensity [12, 26]: 35.5 MFI
fluorescence intensity [13, 27]: 25.5 MFI
fluorescence intensity [13, 28]: 25 MFI
fluorescence intensity [13, 29]: 23.5 MFI
fluorescence intensity [13, 30]: 24 MFI
fluorescence intensity [13, 31]: 25.5 MFI
fluorescence intensity [13, 32]: 25.5 MFI
fluorescence intensity [13, 25]: 27 MFI
fluorescence intensity [13, 26]: 31.5 MFI
fluorescence intensity [14, 27]: 31.5 MFI
fluorescence intensity [14, 28]: 31 MFI
fluorescence intensity [14, 29]: 32 MFI
fluorescence intensity [14, 30]: 31.5 MFI
fluorescence intensity [14, 31]: 33 MFI
fluorescence intensity [14, 32]: 32.5 MFI
fluorescence intensity [14, 25]: 31.5 MFI
fluorescence intensity [14, 26]: 38.8 MFI
fluorescence intensity [15, 27]: 16.5 MFI
fluorescence intensity [15, 28]: 17 MFI
fluorescence intensity [15, 29]: 18 MFI
fluorescence intensity [15, 30]: 18.5 MFI
fluorescence intensity [15, 31]: 18.2 MFI
fluorescence intensity [15, 32]: 18 MFI
fluorescence intensity [15, 25]: 23 MFI
fluorescence intensity [15, 26]: 48.5 MFI
fluorescence intensity [16, 27]: 26 MFI
fluorescence intensity [16, 28]: 27 MFI
fluorescence intensity [16, 29]: 28.5 MFI
fluorescence intensity [16, 30]: 28 MFI
fluorescence intensity [16, 31]: 27 MFI
fluorescence intensity [16, 32]: 29.2 MFI
fluorescence intensity [16, 25]: 28 MFI
fluorescence intensity [16, 26]: 33 MFI
fluorescence intensity [17, 27]: 30 MFI
fluorescence intensity [17, 28]: 29.5 MFI
fluorescence intensity [17, 29]: 32.5 MFI
fluorescence intensity [17, 30]: 30.5 MFI
fluorescence intensity [17, 31]: 31.5 MFI
fluorescence intensity [17, 32]: 30.5 MFI
fluorescence intensity [17, 25]: 32.5 MFI
fluorescence intensity [17, 26]: 39.5 MFI
fluorescence intensity [18, 27]: 17.5 MFI
fluorescence intensity [18, 28]: 16 MFI
fluorescence intensity [18, 29]: 17.2 MFI
fluorescence intensity [18, 30]: 17.5 MFI
fluorescence intensity [18, 31]: 18.5 MFI
fluorescence intensity [18, 32]: 18.5 MFI
fluorescence intensity [18, 25]: 21.5 MFI
fluorescence intensity [18, 26]: 32 MFI
fluorescence intensity [19, 27]: 15.5 MFI
fluorescence intensity [19, 28]: 18.5 MFI
fluorescence intensity [19, 29]: 31 MFI
fluorescence intensity [19, 30]: 94.2 MFI
fluorescence intensity [19, 31]: 438 MFI
fluorescence intensity [19, 32]: 1960 MFI
fluorescence intensity [19, 25]: 7620 MFI
fluorescence intensity [19, 26]: 8590 MFI
fluorescence intensity [20, 27]: 13.8 MFI
fluorescence intensity [20, 28]: 14 MFI
fluorescence intensity [20, 29]: 15 MFI
fluorescence intensity [20, 30]: 15 MFI
fluorescence intensity [20, 31]: 15.5 MFI
fluorescence intensity [20, 32]: 14.8 MFI
fluorescence intensity [20, 25]: 16.5 MFI
fluorescence intensity [20, 26]: 32.5 MFI
fluorescence intensity [21, 27]: 17 MFI
fluorescence intensity [21, 28]: 17 MFI
fluorescence intensity [21, 29]: 19.5 MFI
fluorescence intensity [21, 30]: 19 MFI
fluorescence intensity [21, 31]: 19.5 MFI
fluorescence intensity [21, 32]: 19 MFI
fluorescence intensity [21, 25]: 20.8 MFI
fluorescence intensity [21, 26]: 28.5 MFI
fluorescence intensity [22, 27]: 28.5 MFI
fluorescence intensity [22, 28]: 27.8 MFI
fluorescence intensity [22, 29]: 28 MFI
fluorescence intensity [22, 30]: 26.5 MFI
fluorescence intensity [22, 31]: 28 MFI
fluorescence intensity [22, 32]: 29 MFI
fluorescence intensity [22, 25]: 33 MFI
fluorescence intensity [22, 26]: 44.5 MFI
fluorescence intensity [23, 27]: 19.5 MFI
fluorescence intensity [23, 28]: 19 MFI
fluorescence intensity [23, 29]: 18 MFI
fluorescence intensity [23, 30]: 19 MFI
fluorescence intensity [23, 31]: 20.5 MFI
fluorescence intensity [23, 32]: 21.2 MFI
fluorescence intensity [23, 25]: 27 MFI
fluorescence intensity [23, 26]: 97.2 MFI
fluorescence intensity [24, 27]: 19 MFI
fluorescence intensity [24, 28]: 19 MFI
